# Assay results taken from the supplement of paper PMC8728848.
# The list shows a part of the results.
# What was measured:
# Experiment in all cases: glycan array binding signal (z-score within array); higher = stronger binding
# Settings in all cases: glycan notation: IUPAC condensed, linker removed
# [1] = target: Neu5Ac(a2-3)Gal(b1-3)GalNAc
# Procedure, shortened: (§1)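 Columns mapping to the same glycan were averaged after glycan names were converted to IUPAC-condensed notation. The data come from 3228 arrays in the Consortium for Functional Glycomics database, limited to those with an available protein sequence. Binding is reported as a within-array Z-score averaged across arrays of one protein sequence and across linkers.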
# [2] = target: Neu5Ac(a2-3)Gal(b1-3)GalNAc(b1-3)Gal(a1-4)Gal(b1-4)Glc
# Procedure, shortened: as §1
# [3] = target: Neu5Ac(a2-3)Gal(b1-3)GalNAc(b1-4)[Neu5Ac(a2-3)]Gal(b1-4)Glc
# Procedure, shortened: as §1
# [4] = target: Neu5Ac(a2-3)Gal(b1-3)GalNAc(b1-4)[Neu5Ac(a2-8)Neu5Ac(a2-3)]Gal(b1-4)Glc
# Procedure, shortened: as §1
# [5] = target: Neu5Ac(a2-3)Gal(b1-3)GalNAc6S
# Procedure, shortened: as §1
# [6] = target: Neu5Ac(a2-3)Gal(b1-3)GlcNAc
# Procedure, shortened: as §1
# [7] = target: Neu5Ac(a2-3)Gal(b1-3)GlcNAc(b1-2)Man
# Procedure, shortened: as §1
# [8] = target: Neu5Ac(a2-3)Gal(b1-3)GlcNAc(b1-2)Man(a1-3)[GlcNAc(b1-4)][Neu5Ac(a2-3)Gal(b1-3)GlcNAc(b1-2)Man(a1-6)]Man(b1-4)GlcNAc(b1-4)GlcNAc
# Procedure, shortened: as §1
# [9] = target: Neu5Ac(a2-3)Gal(b1-3)GlcNAc(b1-2)Man(a1-3)[Neu5Ac(a2-3)Gal(b1-3)GlcNAc(b1-2)Man(a1-6)]Man(b1-4)GlcNAc(b1-4)GlcNAc
# Procedure, shortened: as §1
# [10] = target: Neu5Ac(a2-3)Gal(b1-3)GlcNAc(b1-3)Gal(b1-3)GlcNAc
# Procedure, shortened: as §1
# [11] = target: Neu5Ac(a2-3)Gal(b1-3)GlcNAc(b1-3)Gal(b1-4)GlcNAc
# Procedure, shortened: as §1
# [12] = target: Neu5Ac(a2-3)Gal(b1-3)GlcNAc(b1-3)GalNAc
# Procedure, shortened: as §1
# [13] = target: Neu5Ac(a2-3)Gal(b1-3)GlcNAc(b1-4)Gal(b1-4)Glc
# Procedure, shortened: as §1
# [14] = target: Neu5Ac(a2-3)Gal(b1-3)GlcNAc(b1-6)GalNAc
# Procedure, shortened: as §1
# [15] = target: Neu5Ac(a2-3)Gal(b1-3)GlcNAc6S
# Procedure, shortened: as §1
# [16] = target: Neu5Ac(a2-3)Gal(b1-3)[Fuc(a1-4)]GlcNAc
# Procedure, shortened: as §1
# [17] = target: Neu5Ac(a2-3)Gal(b1-3)[Fuc(a1-4)]GlcNAc(b1-3)Gal(b1-3)[Fuc(a1-4)]GlcNAc
# Procedure, shortened: as §1
# [18] = target: Neu5Ac(a2-3)Gal(b1-3)[Fuc(a1-4)]GlcNAc(b1-3)Gal(b1-4)[Fuc(a1-3)]GlcNAc
# Procedure, shortened: as §1
# [19] = target: Neu5Ac(a2-3)Gal(b1-3)[GlcNAc(b1-6)]GalNAc
# Procedure, shortened: as §1
# [20] = target: Neu5Ac(a2-3)Gal(b1-3)[Neu5Ac(a2-6)]GalNAc
# Procedure, shortened: as §1
# [21] = target: Neu5Ac(a2-3)Gal(b1-3)[Neu5Ac(a2-6)]GlcNAc(b1-3)[Fuc(a1-3)[Gal(b1-4)]GlcNAc(b1-6)]Gal(b1-4)Glc
# Procedure, shortened: as §1
# [22] = target: Neu5Ac(a2-3)Gal(b1-3)]Neu5Ac(a2-3)Gal(b1-4)]GlcNAc
# Procedure, shortened: as §1
# [23] = target: Neu5Ac(a2-3)Gal(b1-4)Glc
# Procedure, shortened: as §1
# [24] = target: Neu5Ac(a2-3)Gal(b1-4)GlcNAc
# Procedure, shortened: as §1
# [25] = target: Neu5Ac(a2-3)Gal(b1-4)GlcNAc(b1-2)Man
# Procedure, shortened: as §1
# [26] = target: Neu5Ac(a2-3)Gal(b1-4)GlcNAc(b1-2)Man(a1-3)[GlcNAc(b1-4)][Neu5Ac(a2-3)Gal(b1-4)GlcNAc(b1-2)Man(a1-6)]Man(b1-4)GlcNAc(b1-4)GlcNAc
# Procedure, shortened: as §1
# [27] = target: Neu5Ac(a2-3)Gal(b1-4)GlcNAc(b1-2)Man(a1-3)[Neu5Ac(a2-3)Gal(b1-4)GlcNAc(b1-2)Man(a1-6)]Man(b1-4)GlcNAc(b1-4)GlcNAc
# Procedure, shortened: as §1
# [28] = target: Neu5Ac(a2-3)Gal(b1-4)GlcNAc(b1-2)Man(a1-3)[Neu5Ac(a2-3)Gal(b1-4)GlcNAc(b1-2)Man(a1-6)]Man(b1-4)GlcNAc(b1-4)[Fuc(a1-6)]GlcNAc
# Procedure, shortened: as §1
# [29] = target: Neu5Ac(a2-3)Gal(b1-4)GlcNAc(b1-2)Man(a1-3)[Neu5Ac(a2-6)Gal(b1-4)GlcNAc(b1-2)Man(a1-6)]Man(b1-4)GlcNAc(b1-4)GlcNAc
# Procedure, shortened: as §1
# [30] = target: Neu5Ac(a2-3)Gal(b1-4)GlcNAc(b1-2)[Neu5Ac(a2-3)Gal(b1-4)GlcNAc(b1-4)]Man(a1-3)[GlcNAc(b1-4)][Neu5Ac(a2-3)Gal(b1-4)GlcNAc(b1-2)[Neu5Ac(a2-3)Gal(b1-4)GlcNAc(b1-6)]Man(a1-6)]Man(b1-4)GlcNAc(b1-4)GlcNAc
# Procedure, shortened: as §1
# [31] = target: Neu5Ac(a2-3)Gal(b1-4)GlcNAc(b1-2)[Neu5Ac(a2-3)Gal(b1-4)GlcNAc(b1-4)]Man(a1-3)[GlcNAc(b1-4)][Neu5Ac(a2-3)Gal(b1-4)GlcNAc(b1-4)Man(a1-6)]Man(b1-4)GlcNAc(b1-4)GlcNAc
# Procedure, shortened: as §1
# [32] = target: Neu5Ac(a2-3)Gal(b1-4)GlcNAc(b1-2)[Neu5Ac(a2-3)Gal(b1-4)GlcNAc(b1-6)]Man(a1-6)[Neu5Ac(a2-3)Gal(b1-4)GlcNAc(b1-2)Man(a1-3)]Man(b1-4)GlcNAc(b1-4)GlcNAc
# Procedure, shortened: as §1
# [33] = target: Neu5Ac(a2-3)Gal(b1-4)GlcNAc(b1-2)[Neu5Ac(a2-3)Gal(b1-4)GlcNAc(b1-6)]Man(a1-6)[Neu5Ac(a2-3)Gal(b1-4)GlcNAc(b1-2)Man(a1-3)][GlcNAc(b1-4)]Man(b1-4)GlcNAc(b1-4)GlcNAc
# Procedure, shortened: as §1
# [34] = target: Neu5Ac(a2-3)Gal(b1-4)GlcNAc(b1-3)Gal
# Procedure, shortened: as §1
# [35] = target: Neu5Ac(a2-3)Gal(b1-4)GlcNAc(b1-3)Gal(b1-3)GlcNAc
# Procedure, shortened: as §1
# [36] = target: Neu5Ac(a2-3)Gal(b1-4)GlcNAc(b1-3)Gal(b1-4)GlcNAc
# Procedure, shortened: as §1
# [37] = target: Neu5Ac(a2-3)Gal(b1-4)GlcNAc(b1-3)Gal(b1-4)GlcNAc(b1-2)Man(a1-3)[Neu5Ac(a2-3)Gal(b1-4)GlcNAc(b1-3)Gal(b1-4)GlcNAc(b1-2)Man(a1-6)]Man(b1-4)GlcNAc(b1-4)GlcNAc
# Procedure, shortened: as §1
# [38] = target: Neu5Ac(a2-3)Gal(b1-4)GlcNAc(b1-3)Gal(b1-4)GlcNAc(b1-3)Gal(b1-4)GlcNAc
# Procedure, shortened: as §1
# [39] = target: Neu5Ac(a2-3)Gal(b1-4)GlcNAc(b1-3)Gal(b1-4)GlcNAc(b1-3)Gal(b1-4)GlcNAc(b1-2)Man(a1-3)[Neu5Ac(a2-3)Gal(b1-4)GlcNAc(b1-3)Gal(b1-4)GlcNAc(b1-3)Gal(b1-4)GlcNAc(b1-2)Man(a1-6)]GalNAc
# Procedure, shortened: as §1
# [40] = target: Neu5Ac(a2-3)Gal(b1-4)GlcNAc(b1-3)Gal(b1-4)GlcNAc(b1-3)GalNAc
# Procedure, shortened: as §1
# [41] = target: Neu5Ac(a2-3)Gal(b1-4)GlcNAc(b1-3)Gal(b1-4)GlcNAc(b1-3)[Neu5Ac(a2-3)Gal(b1-4)GlcNAc(b1-3)Gal(b1-4)GlcNAc(b1-6)]GalNAc
# Procedure, shortened: as §1
# [42] = target: Neu5Ac(a2-3)Gal(b1-4)GlcNAc(b1-3)Gal(b1-4)GlcNAc(b1-6)[Gal(b1-3)]GalNAc
# Procedure, shortened: as §1
# [43] = target: Neu5Ac(a2-3)Gal(b1-4)GlcNAc(b1-3)Gal(b1-4)[Fuc(a1-3)]GlcNAc
# Procedure, shortened: as §1
# [44] = target: Neu5Ac(a2-3)Gal(b1-4)GlcNAc(b1-3)GalNAc
# Procedure, shortened: as §1
# [45] = target: Neu5Ac(a2-3)Gal(b1-4)GlcNAc(b1-3)[Neu5Ac(a2-3)Gal(b1-4)GlcNAc(b1-6)]GalNAc
# Procedure, shortened: as §1
binder,measurement,setting,value
FimA-N2 (Actinomyces oris) (protein) MHHHHHHSSGVDLGTENLYFQSNAWIYDVNVYPKNEAIDVDKTIQAQKLNGYGVGSLIKFPVESTAPTLDAKSFYKYFQLKDTLDERLSEVTATDVSLEGTPLQPTDYKVETKQQTVTVTFTAEGLKKIKAAPGKKVSAVFQGKVTKAGNGAITNRAQVISDTLYAEQPPTPETPPTDPENPPTSDEVISRWGDLSIKKVDTHQQGQTKA,glycan array binding signal (z-score),[1],0.048
same,glycan array binding signal (z-score),[2],1.41
same,glycan array binding signal (z-score),[3],-1.08
same,glycan array binding signal (z-score),[4],1.03
same,glycan array binding signal (z-score),[5],-0.925
same,glycan array binding signal (z-score),[6],-0.447
same,glycan array binding signal (z-score),[7],-1.08
same,glycan array binding signal (z-score),[8],1.31
same,glycan array binding signal (z-score),[9],0.44
same,glycan array binding signal (z-score),[10],0.582
same,glycan array binding signal (z-score),[11],-0.399
same,glycan array binding signal (z-score),[12],-1.53
same,glycan array binding signal (z-score),[13],-0.951
same,glycan array binding signal (z-score),[14],-0.182
same,glycan array binding signal (z-score),[15],-0.206
same,glycan array binding signal (z-score),[16],-0.119
same,glycan array binding signal (z-score),[17],1.81
same,glycan array binding signal (z-score),[18],0.678
same,glycan array binding signal (z-score),[19],-0.637
same,glycan array binding signal (z-score),[20],-0.67
same,glycan array binding signal (z-score),[21],-1.4
same,glycan array binding signal (z-score),[22],0.27
same,glycan array binding signal (z-score),[23],-0.144
same,glycan array binding signal (z-score),[24],-0.301
same,glycan array binding signal (z-score),[25],0.315
same,glycan array binding signal (z-score),[26],-0.985
same,glycan array binding signal (z-score),[27],-0.393
same,glycan array binding signal (z-score),[28],-0.844
same,glycan array binding signal (z-score),[29],1
same,glycan array binding signal (z-score),[30],-0.995
same,glycan array binding signal (z-score),[31],-0.483
same,glycan array binding signal (z-score),[32],-0.853
same,glycan array binding signal (z-score),[33],-0.874
same,glycan array binding signal (z-score),[34],-0.62
same,glycan array binding signal (z-score),[35],-0.995
same,glycan array binding signal (z-score),[36],-0.149
same,glycan array binding signal (z-score),[37],-0.355
same,glycan array binding signal (z-score),[38],1.11
same,glycan array binding signal (z-score),[39],0.122
same,glycan array binding signal (z-score),[40],-0.528
same,glycan array binding signal (z-score),[41],-0.786
same,glycan array binding signal (z-score),[42],-0.607
same,glycan array binding signal (z-score),[43],-0.379
same,glycan array binding signal (z-score),[44],-0.365
same,glycan array binding signal (z-score),[45],-0.935

# 3 records drawn at random from the list so far:
binder,measurement,setting,value
FimA-N2 (Actinomyces oris) (protein) MHHHHHHSSGVDLGTENLYFQSNAWIYDVNVYPKNEAIDVDKTIQAQKLNGYGVGSLIKFPVESTAPTLDAKSFYKYFQLKDTLDERLSEVTATDVSLEGTPLQPTDYKVETKQQTVTVTFTAEGLKKIKAAPGKKVSAVFQGKVTKAGNGAITNRAQVISDTLYAEQPPTPETPPTDPENPPTSDEVISRWGDLSIKKVDTHQQGQTKA,glycan array binding signal (z-score),[27],-0.393
same,glycan array binding signal (z-score),[39],0.122
same,glycan array binding signal (z-score),[44],-0.365
